Laboratory results taken from PubChem BioAssay AID1487 (National Center for Advancing Translational Sciences (NCATS), 2009).
The whole screen tested about 200,000 compounds, of which about 25 (0.01%) were called active. Inconclusive results, whose numbers are uncertain, are shown with a selection of clear calls. Calls follow the shape of the dose curve; as a rule, active = well fitted inhibition curve with a large enough effect in the signal ratio, with a control signal flat (not every such curve was filed as active); inconclusive = small, poorly fitted or top-dose-only effect, or effect the other way, or a change in a side signal; inactive = flat fitted curve, though single readings scatter; the % refers to the signal ratio. Where the call is inconclusive, the potency comes from a doubtful curve fit.

Test: qHTS Assay for Modulators of Lamin A Splicing
Conditions: HeLa LMNA splicing GFP/RFP minigene ratio, 48 h; ratio change, negative = inhibition: at 46.1 µM (top of the series) unless noted
Outline: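 S3 HeLa cells stably expressing lamin A-EGFP splicing minigene plus DsRed2, 600 cells/well, 48 h compound exposure at 37C. Laser-scanning cytometry; analysed as GFP (500-530 nm)/RFP (575-640 nm) total intensity ratio; 0.5% DMSO vehicle.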
% is scaled to controls: 0 for no effect and ±100 for the full control effect; potency is read from the fitted curve at half-maximal effect.

Compound	ratio change, negative = inhibition	Potency
COc1ccc(C/C(N)=N/OC(C)=O)cc1OC	inconclusive: -7.16%	–
O=C1CC(c2ccco2)CC2=C1C1c3ccccc3C(=O)N1c1ccccc1N2 (centres undefined)	–	inconclusive: 35.5 µM [falling, single point]
CC(=O)Nc1ccc(S(=O)(=O)Nc2nc3ccc(C)cc3s2)cc1	inactive	–
O=c1c2sccc2nc(SCc2cc(=O)n3cc(Cl)ccc3n2)n1Cc1ccccn1	inconclusive: -1.65% [at 46 µM]	–
CC(C)Oc1cccc(C(=O)NC(=S)Nc2cccnc2)c1	inactive	–
O=C(Nc1nnc(C2CC2)s1)c1ccccn1	inconclusive: -15.9%	–
COc1ccccc1NC(=O)Cn1nc(-c2ccncc2)nc1SCC(=O)NC1CCCC1	inconclusive: 37% [at 46 µM]	–
CCOC(=O)c1cnc(-c2ccccc2)nc1N1CCOCC1	inactive	–
Cc1c(C(=O)Nc2ccc(F)cc2)oc2ccc(S(=O)(=O)N3CCC4(CC3)OCCO4)cc12	–	inconclusive: 11.2 µM [falling, single point]
Oc1cccc(/C=N/c2c(-c3ccco3)nc3ccccn23)c1	inconclusive: 6.11%	–
Cc1ccc(S(=O)(=O)N/N=c2\oc3ccccc3cc2C(=O)Nc2cccc(C)c2)cc1	inactive	–
COc1ccc(/C=N/S(=O)(=O)c2ccc(C)cc2)cc1	inconclusive: 25.7% [at 46 µM]	–
COc1ccc2c(c1)C(NC(C)=O)C(=O)N2C (centres undefined)	inactive	–
Cc1ccc(OCc2n[nH]c(=S)n2-c2ccccc2)cc1C	inactive	–
COc1ccc(/C=C2\CCc3ccccc3C2=O)c(OC)c1OC	inconclusive: -20.3% [at 46 µM]	–
COC(=O)/C(=C\c1ccc([N+](=O)[O-])o1)NC(=O)c1ccccc1	–	inconclusive: 15.8 µM [cytotoxic, single point]
CC1Cc2ccccc2N1C(=O)CSc1nccc(=O)[nH]1 (centres undefined)	inconclusive: 20% [at 46 µM]	–
COc1ccccc1NC(=O)c1ccc(NC(=O)Cc2n[nH]c(=O)c3ccccc23)cc1	inactive	–
Cc1cc(C)c(/C=C/c2onc(C)c2S(=O)(=O)N2CCC(C(=O)Nc3ccc(Cl)cc3C)CC2)c(C)c1	inconclusive: 61.4% [at 46 µM]	–
CN1CCCN(C(=O)C2CCC(C(=O)N3CCCN(C)CC3)CC2)CC1 (centres undefined)	inconclusive: 6.05% [at 46 µM]	–
CCn1c2ccccc2c2cc(/C=N/NC(=O)c3ccc(O)cc3)ccc21	inconclusive: -5.88%	–

Compound	ratio change, negative = inhibition	Potency
COc1ccc(-c2nnc(Nc3nc4c(OC)cccc4s3)o2)cc1	inconclusive: 237%	–
CCN1CCN(CCCN(Cc2ccco2)C(=S)Nc2cccc(Cl)c2C)CC1	inconclusive: -18.5% [at 46 µM]	–
CN(c1ccccc1)c1nc(-n2ccnc2)nc(-n2ccnc2)n1	inconclusive: -48.3%	–
CCc1nnc(NC(=O)Cc2cccs2)s1	inconclusive: 8.98% [at 46 µM]	–
COc1ccc2cc3cc(C(=O)Nc4cc(OC)c(OC)c(OC)c4)oc3nc2c1	inactive	–
COc1ccc2nc(SCC(=O)N3CC(=O)Nc4ccccc43)c(C#N)cc2c1	inconclusive: -23.2%	–
O=C(NCc1ccncc1)c1ccc(Oc2ccccc2)cc1	–	inconclusive: 14.1 µM [inhibitor, partial curve]
O=C(CNCCN1CCOCC1)Nc1ccccc1Sc1ccccc1	inactive	–
COc1ccc(NC(=O)C(=O)NCC(c2cccnc2)N2CCc3ccccc3C2)cc1 (centres undefined)	–	active: 14.1 µM
Cc1cc(OCCN2CC(C)OC(C)C2)ccc1[N+](=O)[O-] (centres undefined)	inactive	–
CN1CCN(c2nc(-c3ccc4c(c3)OCO4)nc3ccccc23)CC1	inconclusive: -22.7%	–
Cn1cc(C(=O)c2cccc(Cl)c2)cc1C#N	inconclusive: -7.45% [at 46 µM]	–
Cc1ccc2c(c1)CC(C)N2S(=O)(=O)c1nnc(NC(=O)C(C)C)s1 (centres undefined)	inactive	–
CCc1ccc(Nc2cc(C(=O)NCCCN(C)c3ccccc3)c3ccccc3n2)cc1	–	inconclusive: 35.5 µM [cytotoxic, single point]
C=CCOc1ccc(/C(O)=C2\C(=O)C(=O)N(CCOC)C2c2cccnc2)cc1 (centres undefined)	inactive	–
COCCNc1ncnc2onc(-c3ccc(F)cc3)c12	inactive	–
Cn1cc(C(F)(F)F)nc1-c1ccc(OCC(O)CNCCOc2ccc(O)c(C(N)=O)c2)cc1 (centres undefined)	inconclusive: -34%	–
O=C(CSc1nnc2ncccn12)N1CCCCCC1	inactive	–
O=S(=O)(Nc1cc(C(F)(F)F)ccc1N1CCOCC1)c1ccc2ccccc2c1	inconclusive: -40.9%	–
Cc1ccn2c(C(=O)CSc3ccc(Cl)cc3Cl)c(C)nc2c1	inconclusive: 5.81%	–
CC(=O)NCc1cccc(CNC(C)=O)n1	inactive	–

As entered above.
For ratio change, negative = inhibition, `O=C(CNCCN1CCOCC1)Nc1ccccc1Sc1ccccc1` is listed with inactive
For Potency, `COc1ccc(NC(=O)C(=O)NCC(c2cccnc2)N2CCc3ccccc3C2)cc1` (centres undefined) is listed with active: 14.1 µM
For ratio change, negative = inhibition, `Cn1cc(C(F)(F)F)nc1-c1ccc(OCC(O)CNCCOc2ccc(O)c(C(N)=O)c2)cc1` (centres undefined) is listed with inconclusive: -34%
For ratio change, negative = inhibition, `C=CCOc1ccc(/C(O)=C2\C(=O)C(=O)N(CCOC)C2c2cccnc2)cc1` (centres undefined) is listed with inactive

Next structures follow:

Compound	ratio change, negative = inhibition	Potency
O=C(c1ccc2ccccc2c1)N1CCN(c2ccc(O)cc2)CC1	–	inconclusive: 8.91 µM [inhibitor, partial curve]
COc1ccc(/C=C/C(=O)c2ccc(NS(=O)(=O)c3ccc(C)cc3)cc2)cc1O	–	inconclusive: 35.5 µM [cytotoxic, single point]
Cc1c(NC(=O)c2ccccc2)cccc1[N+](=O)[O-]	inconclusive: 3.44%	–
COc1ccc(OC)c(C(=O)CSc2nnc(-c3cccnc3)n2C)c1	inconclusive: 5.46%	–
COc1cccc(N(C(=O)CS(=O)CC(=O)Nc2ccc(F)cc2)C(C(=O)NC2CCCCC2)c2cccs2)c1 (centres undefined)	inconclusive: -2.78%	–
O=C(CCc1ccc(Oc2cc([N+](=O)[O-])cc([N+](=O)[O-])c2)cc1)Nc1cccc(Cl)c1	–	inconclusive: 35.5 µM [falling, partial curve]
Cc1ccc(N=Cc2nc(-c3ccc(C)cc3)oc2O)cc1	inconclusive: 10.7% [at 46 µM]	–
O=C(NCc1ccco1)c1cc(S(=O)(=O)N2CCCc3ccccc32)ccc1Cl	–	inconclusive: 35.5 µM [fluorescent, single point]
CCOC(=O)c1c(CSc2ccc(C)cc2)oc2ccc(O)cc12	–	inconclusive: 35.5 µM [fluorescent, single point]
COC(=O)c1[nH]c(C)c(/C(O)=C2\C(=O)C(=O)N(CCCN3CCOCC3)C2c2ccccn2)c1C (centres undefined)	inactive	–
Cc1cc(C)nc(NS(=O)(=O)c2ccc(N)cc2)n1	inconclusive: -9.82%	–
O=c1[nH]c(=O)n(Cc2ccccc2)c2nc(-c3ccco3)cc(C(F)(F)F)c12	inconclusive: 22.8%	–
O=C(NCc1ccco1)C(=S)N1CCCCC1	inconclusive: 30.2% [at 46 µM]	–
Cc1cc(S(=O)(=O)NCC(c2ccc(N(C)C)cc2)N2CCOCC2)ccc1F (centres undefined)	inconclusive: -7.47% [at 46 µM]	–
O=C(CSC1=Nc2ccccc2N=C(c2ccc(F)cc2)C1)NCc1ccc(Cl)cc1	inactive	–
CCCN1C(=O)C(Cc2nc3ccccc3c(=O)n2C)c2ccccc21 (centres undefined)	inactive	–
CCOC(=O)N1CCN(C(=O)COc2ccc(Br)cc2Cl)CC1	inconclusive: 8.79%	–
CCCCCNC(=O)CCn1c(=O)[nH]c2ccccc2c1=O	inconclusive: -25.4% [at 46 µM]	–
Fc1cc(F)cc(NC(=S)N2CCC(c3ccccc3)C2)c1 (centres undefined)	inconclusive: 8.3% [at 46 µM]	–
CCOC(=O)N1CCC(NC(=O)c2cc(S(=O)(=O)N3CCOCC3)ccc2F)CC1	inconclusive: 3.1%	–
O=C(Nc1ccc(Cl)cc1)c1csc(Cc2ccccc2)n1	–	inconclusive: 2.51 µM [inhibitor, full curve]

Compound	ratio change, negative = inhibition	Potency
O=C1C(c2ccc(F)cc2)N(Cc2ccc3c(c2)OCO3)C(=O)CN1C1CCCC1 (centres undefined)	inconclusive: 1.21%	–
Cc1c(/C=N/NC(=O)c2ccc(O)cc2)c2ccccn2c1C(=O)c1ccc(F)cc1	–	inconclusive: 35.5 µM [fluorescent, single point]
N#Cc1cc2c([nH]c1=S)CCCCCC2	inactive	–
CO/N=C/c1ccc(Sc2ccc(C)cc2)c([N+](=O)[O-])c1	inactive	–
CCc1ccccc1NC(=O)C(C)n1nc(-c2ccc(C)c(C)c2)ccc1=O (centres undefined)	inconclusive: 31.9% [at 46 µM]	–
Cc1ccc(C)c(Cn2nnc3c(=O)[nH]c(C4CCCN(C(=O)C5CCC5)C4)nc32)c1 (centres undefined)	inconclusive: 37.6%	–
COC(=O)CSc1nc(C)cc(C)n1	inconclusive: 27.8% [at 9.22 µM]	–
Cc1ccc2cccc(OCCOCCOc3ccccc3Br)c2n1	–	inconclusive: 14.1 µM [fluorescent, single point]
N#C/C(=C(/O)COc1ccc(Br)cc1)c1nnc2n1CCCCC2	inactive	–
CC(=O)Nc1nc(-c2ccccc2)ns1	inactive	–
CCOc1ccc(-n2c(-c3ccco3)n[nH]c2=S)cc1	inactive	–
O=C(c1ccccc1)c1c[nH]c(C(=O)NNc2ccccc2)c1	inconclusive: 38.4% [at 46 µM]	–
CCc1ccc(NC(=O)CCc2c(C)n(C)c3cc(-c4ccccc4C)nn3c2=O)cc1	inactive	–
Cc1nc2ccccn2c1C(=O)/C=C/c1cccc([N+](=O)[O-])c1	–	inconclusive: 2.24 µM [inhibitor, partial curve]
C=C/C(C)=C/[C@@]1(C)SC(=O)C(C)=C1O	inactive	–
CCc1ccc2c(c1)C(c1cccs1)=NNC(c1cccnc1)=N2	inconclusive: -6.47%	–
COc1ccc(-c2ccc(SCc3cccnc3)nn2)cc1OC	inconclusive: -33.3% [at 46 µM]	–
O=C(CSc1nncc2ccccc12)N1CCOCC1	inactive	–
COc1ccc(CC(=O)Nc2ccc(C(=O)Nc3ccccc3C(=O)O)cc2)cc1OC	inactive	–
O=C(/C=C/c1ccco1)NC1=NCCS1	inconclusive: -23.5%	–
Cc1cc(S(=O)(=O)N2CCCC2C(=O)N2CCOCC2)c(C)cc1Cl (centres undefined)	inactive	–
